Reference: patent US20240287172A1, “PROTEIN BINDERS TO IRHOM2 EPITOPES” (SCIRHOM GMBH, priority 2019, published 2024)
These are yes or no findings as the source states them, for the method shown. Some entries that bind do so weakly or less than the wild type.

T1: human iRhom2, endogenously expressed (human) (UniProt Q6PJF5)
T1 sequence: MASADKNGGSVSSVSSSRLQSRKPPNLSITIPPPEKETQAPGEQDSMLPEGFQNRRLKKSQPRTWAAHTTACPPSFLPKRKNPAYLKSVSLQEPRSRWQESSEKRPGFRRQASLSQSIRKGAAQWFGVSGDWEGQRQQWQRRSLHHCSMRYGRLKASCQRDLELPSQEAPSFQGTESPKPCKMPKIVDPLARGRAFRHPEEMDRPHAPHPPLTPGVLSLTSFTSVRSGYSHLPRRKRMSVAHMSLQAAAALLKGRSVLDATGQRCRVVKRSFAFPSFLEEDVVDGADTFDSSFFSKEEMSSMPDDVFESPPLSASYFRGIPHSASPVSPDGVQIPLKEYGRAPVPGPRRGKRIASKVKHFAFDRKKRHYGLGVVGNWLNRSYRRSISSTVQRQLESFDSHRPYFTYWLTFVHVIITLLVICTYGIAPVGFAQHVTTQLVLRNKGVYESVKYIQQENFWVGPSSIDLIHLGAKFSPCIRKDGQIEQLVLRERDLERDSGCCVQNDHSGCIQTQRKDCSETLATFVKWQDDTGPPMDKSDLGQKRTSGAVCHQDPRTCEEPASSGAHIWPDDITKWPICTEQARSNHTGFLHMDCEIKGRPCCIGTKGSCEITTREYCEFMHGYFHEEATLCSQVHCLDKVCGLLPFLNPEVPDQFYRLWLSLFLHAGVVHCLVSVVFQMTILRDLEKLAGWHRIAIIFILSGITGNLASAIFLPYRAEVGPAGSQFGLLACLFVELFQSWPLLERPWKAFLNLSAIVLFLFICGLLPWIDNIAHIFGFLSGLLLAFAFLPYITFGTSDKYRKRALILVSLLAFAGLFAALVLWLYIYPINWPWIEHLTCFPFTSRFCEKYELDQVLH


Columns and labels:
[1] = target: T1, human iRhom2, endogenously expressed (human); test: FACS, RPMI-8226 and THP-1 cells, 3 µg/ml
[2] = target: T1, human iRhom2, endogenously expressed (human); test: FACS, RPMI-8226 and THP-1 cells, 3 µg/ml, murine version
[3] = target: T1, human iRhom2, endogenously expressed (human); test: indirect FACS scatchard on THP-1 cells; KD only in FIG. 6
[4] = target: T1, human iRhom2, endogenously expressed (human); test: FACS on RPMI-8226 and THP-1 cells (iRhom2-positive), 3 µg/ml
[5] = target: T1, human iRhom2, endogenously expressed (human); test: FACS scatchard on THP-1 cells
[6] = target: T1, human iRhom2, endogenously expressed (human); test: FACS, RPMI-8226 and THP-1 cells; via representative antibody 16

Binder | binding [1] | binding [2] | binding [3] | binding [4] | binding [5] | binding [6]
antibody 16 (antibody, V domains shown) VH: QVTLKESGPGILQPSQTLSLTCSFSGFSLSTFALGVGWIRQPSGRGLEWLAHIWWDDDKYYNPALKSRLTISKDTSKNHVFLKIANVDTADTATYYCARITTYYYGMDYWGQGTSVTVSS VL: DIVLSQSPATLSVTPGDSVSLFCRASQSIGNHLHWYQQESHASPRLLIKYASQSISGIPSRFSGSGSGTDFTLSINSVETEDFGMYFCQQSYNWPLTFGAGTKLELK | binds | binds | binds | binds | binds | 
antibody 3 (antibody, V domains shown) VH: QVTLKESGPGILQPSQTLSLTCSFSGFSLTTFAMGIGWVRQPSGKGLEWLAHIWWDGEKYNNPVLKSRLTISKDTSKNQVFLRIANVDTPDTATYYCARISSIYYIIDNWGQGTSVTVSS VL: DIVLTQSPATLSVTPGHSVSLSCRASQSISNNLHWYQKKSHESPRLLIKYVSQSISGIPSRFSGSGSGTDFTLSINSVETEDFGMYFCQQSYNWPLTFGAGTKLELK |  |  | binds |  | binds | 
antibody 34 (antibody, V domains shown) VH: QVTLKESGPGILQPSQTLSLTCSFSGFSLSTFSLGVGWIRQSSGKGLEWLAHIWWDDEKYYNPALKSRLTISKDTSKNQVFLKIANVDAADTATYYCARAYYSKSYYALDYWGQGTSVTVSS VL: DIQMTQSPSSLSASLGERVSLTCRASQEISGYLSWLQQKPDGTIKRLIYAASTLDSGVPKRFSGSRSGSDYSLAISSLESEDFADYYCLQYANFPFTFGSGTKLEIK |  |  | binds |  | binds | 
antibody 22 (antibody, V domains shown) VH: QVTLKESGPGILQPSQTLSLTCSFSGFSLSTFGMGVGWIRQPSGKGLEWLAHIWWDDEKYYNSALKSRLTISKATSKNQVFLKIANVDTADTATYYCARISNYGSNYWYFNVWGTGTTVTVSS VL: QVVLTQSPALMSASPGEKVTMTCSAGSSVSYMYWYQQKPGSSPRVLIYDTSNLASGVPARFTGSGSGTSYSLTISRMEAEDAATYYCQQWNSYPLTFGAGTKLELK |  |  | binds |  | binds | binds
antibody 43 (antibody, V domains shown) VH: QVALKESGPGILQPSQTLSLTCSFSGFSLSTFGMGVGWIRQSSGKGLEWLANIWWDDDKYYNPALKSRLTISKDASKNQAFLKIANVDTADTATYYCARIGNYGSNYWYFDVWGTGTTVTVSS VL: QIVLTQSPAIMSASPGERVTMTCSANSRISYMYWYQQKPGSSPRLLIYDTSNLASGVPVRFSGSGSGTSYSLTISRMEAEDAATYNCQQWSSYPLTFGAGTKLELK |  |  | binds |  | binds | 
antibody 5 (antibody, V domains shown) VH: QVTLKESGPGILQPSQTLSLTCSFSGFSLSTFGMGVGWIRQPSGKGLEWLAHIWWDDEKYYNSALKSRLTISKATSKNQAFLKIANVDTADTATYYCARISNYGSNYWYFNVWGTGTTVTVSS VL: QVVLTQSPALMSASPGEKVTMTCSAGSSVSCMYWYQQKPGSSPRVLIYDTSNLASGVPARFTGSGSGTSYSLTISRMEAEDAASYYCQQWNSYPLTFGAGTKLELK |  |  | binds |  | binds | 
antibody 42 (antibody, V domains shown) VH: QVTLKESGPGILQPSQTLSLTCSLSGFSLSTFGRGVGWIRQPSGKGLEWLAHIWWDDEKYYNPALKSRLTISKDTSKNQVFLRIANVDTADTATYYCARIQNYGSNYWYFDVWGTGTTVTVSS VL: LIVLTQSPAIMSASPGEKVTMTCGATSRISYMFWYQQKPGSSPRVLIYDTSNLASGVPVRFSGSGSGTSYSLTISRVEAEDVATYYCQQWNSYPLTFGAGTKLELK |  |  | binds |  | binds | binds

The next lines start with the values.

binding [1] | binding [2] | binding [3] | binding [4] | binding [5] | binding [6] | Binder
binds |  |  | binds |  |  | chimeric antibody 16 (antibody, V domains shown) VH: QVTLKESGPGILQPSQTLSLTCSFSGFSLSTFALGVGWIRQPSGRGLEWLAHIWWDDDKYYNPALKSRLTISKDTSKNHVFLKIANVDTADTATYYCARITTYYYGMDYWGQGTSVTVSS VL: DIVLSQSPATLSVTPGDSVSLFCRASQSIGNHLHWYQQESHASPRLLIKYASQSISGIPSRFSGSGSGTDFTLSINSVETEDFGMYFCQQSYNWPLTFGAGTKLELK
 |  | binds |  | binds |  | antibody 44 (antibody, V domains shown) VH: QVTLKESGPGILQPSQTLSLTCSFSGFSLSTFGMGVGWIRQPSEKGLEWLAHIWWDDDKYYNPALKSRLTISKDTSKNQIFLKITNVDTAETATYYCSRIGNYGSNYWYFDVWGTGTTVTVSS VL: QIVLTQSPAVMSASPGEKVTMTCTASSSVYYMYWYQQTPGSSPRLLIYDTSNLASGVPVRFSGSGSGTSYSLTISRMEAEDAATYYCQQWNTYPLTFGAGTKLELK
 |  | binds |  | binds |  | antibody 48 (antibody, V domains shown) VH: QVQLQQSGTELVRPGTSVKVSCKASGYAFTNYLIEWVKQRPGQGLEWIGVINPGSGFTKYNEKFKGKATLTADKSSSTVYMHLSSLTSEDSAVYFCARGLYRAMDYWGQGTSVTVSS VL: DIQMTQSPASQSASLGESVTITCLASQTIATWLAWYQQKPGKSPQLLIYGATTLADGVPSRFSGGGSGTKFSFKISSLQAEDFVSYYCQQLYSTPYTFGGGTKLEIK
 |  | binds |  | binds |  | antibody 50 (antibody, V domains shown) VH: QVQLQQSGAELVRPGASVKVSCKASGYAFSNYLIEWVKQRPGQGLEWIGVINPGSGFTKYNEKFKGKATLTADKSSSTAYMQLSSLTSEDSAVYFCARGLYRAMDYWGQGTSVTVSS VL: DIQMTQSPASQSASLGESVTITCLASQTIGTWLAWYQQKPGKSPQLLIYAAASLADGVPSRFSGGGSGTKFSFKISSLQAEDFVNYYCQQIYSTPYTFGGGTKLEIK
